Experimental data taken from the supplement of paper PMC12067093, “Discovery and optimisation of a covalent ligand for TRIM25 and its application to targeted protein ubiquitination” (Chemical Science, 2025).
The list shows a part of the results.

Amino acid sequences for entries named in this document (tags omitted). A change or cut given only in a name is not applied to a line headed by its entry.
UniProt P49327, whole entry, looked up: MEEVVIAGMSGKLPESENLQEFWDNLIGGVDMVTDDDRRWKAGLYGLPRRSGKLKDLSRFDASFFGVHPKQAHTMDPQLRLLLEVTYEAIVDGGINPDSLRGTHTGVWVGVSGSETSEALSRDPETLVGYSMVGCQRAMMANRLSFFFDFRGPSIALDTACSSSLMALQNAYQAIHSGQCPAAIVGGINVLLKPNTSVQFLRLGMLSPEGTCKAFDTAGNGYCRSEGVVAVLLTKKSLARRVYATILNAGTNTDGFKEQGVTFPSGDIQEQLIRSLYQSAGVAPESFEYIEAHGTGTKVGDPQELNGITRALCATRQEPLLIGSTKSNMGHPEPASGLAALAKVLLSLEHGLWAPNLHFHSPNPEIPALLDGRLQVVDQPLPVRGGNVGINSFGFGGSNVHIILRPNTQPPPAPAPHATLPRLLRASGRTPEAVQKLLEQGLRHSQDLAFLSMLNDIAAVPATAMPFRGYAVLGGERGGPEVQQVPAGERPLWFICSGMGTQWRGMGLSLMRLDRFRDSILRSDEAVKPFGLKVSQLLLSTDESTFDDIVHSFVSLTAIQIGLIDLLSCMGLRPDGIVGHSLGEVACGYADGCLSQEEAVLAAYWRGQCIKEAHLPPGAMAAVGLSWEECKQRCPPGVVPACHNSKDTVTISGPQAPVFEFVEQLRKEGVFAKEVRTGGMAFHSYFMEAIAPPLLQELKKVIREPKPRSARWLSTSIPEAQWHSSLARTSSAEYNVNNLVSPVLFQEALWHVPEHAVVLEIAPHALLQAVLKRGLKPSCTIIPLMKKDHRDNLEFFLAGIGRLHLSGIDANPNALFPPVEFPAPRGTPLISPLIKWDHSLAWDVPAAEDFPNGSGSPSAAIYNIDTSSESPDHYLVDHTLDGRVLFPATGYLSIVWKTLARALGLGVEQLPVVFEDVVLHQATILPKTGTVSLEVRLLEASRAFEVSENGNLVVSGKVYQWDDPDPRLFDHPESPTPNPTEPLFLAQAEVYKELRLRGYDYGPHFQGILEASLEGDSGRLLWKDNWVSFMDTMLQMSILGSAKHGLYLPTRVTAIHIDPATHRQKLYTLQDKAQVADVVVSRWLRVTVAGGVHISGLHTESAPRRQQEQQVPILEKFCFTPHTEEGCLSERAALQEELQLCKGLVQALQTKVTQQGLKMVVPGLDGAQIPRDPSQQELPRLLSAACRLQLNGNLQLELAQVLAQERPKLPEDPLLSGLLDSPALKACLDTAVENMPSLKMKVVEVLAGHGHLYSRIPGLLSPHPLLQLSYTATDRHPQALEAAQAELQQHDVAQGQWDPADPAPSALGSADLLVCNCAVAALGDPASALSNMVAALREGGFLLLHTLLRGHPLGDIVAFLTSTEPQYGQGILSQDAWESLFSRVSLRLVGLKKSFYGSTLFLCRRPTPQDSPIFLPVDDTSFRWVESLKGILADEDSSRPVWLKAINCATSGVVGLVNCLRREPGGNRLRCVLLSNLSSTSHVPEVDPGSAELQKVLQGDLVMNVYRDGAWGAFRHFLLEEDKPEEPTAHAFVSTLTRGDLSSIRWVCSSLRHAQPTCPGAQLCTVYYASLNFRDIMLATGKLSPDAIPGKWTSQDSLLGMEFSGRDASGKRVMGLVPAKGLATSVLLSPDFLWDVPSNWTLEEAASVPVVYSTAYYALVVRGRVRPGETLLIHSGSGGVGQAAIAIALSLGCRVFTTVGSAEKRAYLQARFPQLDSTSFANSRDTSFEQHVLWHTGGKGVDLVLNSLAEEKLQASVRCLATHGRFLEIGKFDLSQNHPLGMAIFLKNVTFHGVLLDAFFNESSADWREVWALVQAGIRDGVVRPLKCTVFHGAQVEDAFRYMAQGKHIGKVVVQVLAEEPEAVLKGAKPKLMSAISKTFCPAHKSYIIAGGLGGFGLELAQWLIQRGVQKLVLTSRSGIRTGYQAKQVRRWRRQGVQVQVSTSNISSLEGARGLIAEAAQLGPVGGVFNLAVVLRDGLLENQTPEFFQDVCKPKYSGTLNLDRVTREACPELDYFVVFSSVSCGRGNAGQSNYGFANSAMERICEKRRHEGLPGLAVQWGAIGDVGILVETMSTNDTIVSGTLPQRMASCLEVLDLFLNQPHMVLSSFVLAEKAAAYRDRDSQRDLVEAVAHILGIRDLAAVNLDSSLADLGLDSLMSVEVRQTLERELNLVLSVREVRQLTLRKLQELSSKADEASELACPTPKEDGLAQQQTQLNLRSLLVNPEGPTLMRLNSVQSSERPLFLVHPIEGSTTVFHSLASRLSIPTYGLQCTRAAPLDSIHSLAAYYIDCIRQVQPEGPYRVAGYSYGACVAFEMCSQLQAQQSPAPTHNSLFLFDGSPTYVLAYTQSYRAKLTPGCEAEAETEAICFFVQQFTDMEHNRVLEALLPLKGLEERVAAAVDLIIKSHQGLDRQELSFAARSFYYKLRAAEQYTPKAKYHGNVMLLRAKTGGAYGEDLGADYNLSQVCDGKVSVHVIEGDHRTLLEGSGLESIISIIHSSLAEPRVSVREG
UniProt Q53R41: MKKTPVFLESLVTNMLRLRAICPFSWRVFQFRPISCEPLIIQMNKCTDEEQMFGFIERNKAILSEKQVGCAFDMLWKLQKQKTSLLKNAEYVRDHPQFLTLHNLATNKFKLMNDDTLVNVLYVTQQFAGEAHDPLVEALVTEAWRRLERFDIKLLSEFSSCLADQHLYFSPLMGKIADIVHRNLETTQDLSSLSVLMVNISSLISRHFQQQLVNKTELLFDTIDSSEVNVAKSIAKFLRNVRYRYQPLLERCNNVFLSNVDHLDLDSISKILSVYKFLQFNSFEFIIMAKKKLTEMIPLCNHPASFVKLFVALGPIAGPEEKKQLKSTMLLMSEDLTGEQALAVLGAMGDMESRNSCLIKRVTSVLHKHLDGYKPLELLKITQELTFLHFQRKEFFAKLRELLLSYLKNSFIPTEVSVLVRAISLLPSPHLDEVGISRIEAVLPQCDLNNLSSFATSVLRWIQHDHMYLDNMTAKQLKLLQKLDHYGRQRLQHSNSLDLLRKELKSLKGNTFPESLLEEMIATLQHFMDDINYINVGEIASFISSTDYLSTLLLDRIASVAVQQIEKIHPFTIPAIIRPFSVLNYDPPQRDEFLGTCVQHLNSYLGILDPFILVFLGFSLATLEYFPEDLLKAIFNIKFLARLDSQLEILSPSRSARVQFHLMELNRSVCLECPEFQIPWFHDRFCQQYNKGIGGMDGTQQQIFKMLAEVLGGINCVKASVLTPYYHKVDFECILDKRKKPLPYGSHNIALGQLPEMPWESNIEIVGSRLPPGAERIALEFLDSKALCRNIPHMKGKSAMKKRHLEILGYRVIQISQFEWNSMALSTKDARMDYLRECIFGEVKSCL
UniProt Q9Y3I1: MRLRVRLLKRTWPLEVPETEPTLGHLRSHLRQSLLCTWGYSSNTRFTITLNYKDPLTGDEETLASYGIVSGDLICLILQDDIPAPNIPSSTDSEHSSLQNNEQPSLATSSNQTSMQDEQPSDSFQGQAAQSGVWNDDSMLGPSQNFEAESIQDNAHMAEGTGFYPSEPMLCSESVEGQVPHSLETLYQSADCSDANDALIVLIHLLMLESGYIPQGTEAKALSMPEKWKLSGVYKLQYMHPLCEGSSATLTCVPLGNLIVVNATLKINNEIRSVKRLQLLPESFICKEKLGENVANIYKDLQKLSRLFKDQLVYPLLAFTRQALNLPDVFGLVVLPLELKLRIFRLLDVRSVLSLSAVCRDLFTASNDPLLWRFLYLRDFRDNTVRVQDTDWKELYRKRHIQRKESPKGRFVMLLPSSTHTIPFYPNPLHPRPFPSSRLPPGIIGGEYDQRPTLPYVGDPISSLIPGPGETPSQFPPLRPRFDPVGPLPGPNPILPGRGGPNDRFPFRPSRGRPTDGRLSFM
UniProt Q658Y4: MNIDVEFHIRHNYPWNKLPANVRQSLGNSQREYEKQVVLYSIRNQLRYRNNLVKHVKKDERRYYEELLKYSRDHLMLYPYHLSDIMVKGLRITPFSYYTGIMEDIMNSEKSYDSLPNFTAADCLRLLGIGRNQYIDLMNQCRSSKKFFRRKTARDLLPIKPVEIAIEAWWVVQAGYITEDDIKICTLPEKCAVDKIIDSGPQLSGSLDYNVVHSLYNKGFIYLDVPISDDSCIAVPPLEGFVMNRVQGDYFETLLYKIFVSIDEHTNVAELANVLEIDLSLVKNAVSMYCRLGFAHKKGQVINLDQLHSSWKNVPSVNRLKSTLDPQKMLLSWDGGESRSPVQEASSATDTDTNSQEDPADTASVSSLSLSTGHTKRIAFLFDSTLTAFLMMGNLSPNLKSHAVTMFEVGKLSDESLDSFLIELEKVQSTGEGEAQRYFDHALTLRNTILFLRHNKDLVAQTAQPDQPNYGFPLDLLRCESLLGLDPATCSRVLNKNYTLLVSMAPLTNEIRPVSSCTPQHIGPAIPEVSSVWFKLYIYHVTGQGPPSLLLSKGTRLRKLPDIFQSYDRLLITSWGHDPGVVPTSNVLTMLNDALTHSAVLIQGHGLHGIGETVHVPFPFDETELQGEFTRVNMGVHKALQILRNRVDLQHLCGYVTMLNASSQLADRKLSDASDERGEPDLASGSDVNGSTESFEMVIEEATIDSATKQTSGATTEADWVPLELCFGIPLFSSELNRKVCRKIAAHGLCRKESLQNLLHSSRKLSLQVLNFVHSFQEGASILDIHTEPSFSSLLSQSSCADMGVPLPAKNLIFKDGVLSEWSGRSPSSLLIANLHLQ
UniProt P12318: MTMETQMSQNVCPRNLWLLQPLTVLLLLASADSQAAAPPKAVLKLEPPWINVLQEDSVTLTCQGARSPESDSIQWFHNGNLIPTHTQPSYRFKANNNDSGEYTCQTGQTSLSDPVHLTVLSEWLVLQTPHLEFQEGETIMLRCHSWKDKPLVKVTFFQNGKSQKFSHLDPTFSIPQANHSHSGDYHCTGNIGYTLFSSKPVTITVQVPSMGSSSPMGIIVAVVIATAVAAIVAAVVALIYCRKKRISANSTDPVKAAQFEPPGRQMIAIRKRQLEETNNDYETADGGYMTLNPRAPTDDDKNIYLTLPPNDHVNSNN
UniProt Q8WVX9: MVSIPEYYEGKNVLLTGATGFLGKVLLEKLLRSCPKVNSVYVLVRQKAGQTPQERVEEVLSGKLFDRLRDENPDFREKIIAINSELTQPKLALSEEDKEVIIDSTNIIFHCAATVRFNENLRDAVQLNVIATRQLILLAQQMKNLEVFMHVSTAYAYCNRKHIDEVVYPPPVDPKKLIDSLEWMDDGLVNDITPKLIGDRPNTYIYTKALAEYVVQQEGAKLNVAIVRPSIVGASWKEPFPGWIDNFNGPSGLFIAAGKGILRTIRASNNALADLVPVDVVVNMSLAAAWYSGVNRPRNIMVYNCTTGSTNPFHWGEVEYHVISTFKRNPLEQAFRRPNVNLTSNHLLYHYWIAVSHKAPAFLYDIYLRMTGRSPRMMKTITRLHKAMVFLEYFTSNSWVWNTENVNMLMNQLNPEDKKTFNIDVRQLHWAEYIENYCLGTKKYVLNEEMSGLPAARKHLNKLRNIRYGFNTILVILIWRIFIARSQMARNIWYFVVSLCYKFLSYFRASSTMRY
UniProt Q52LJ0: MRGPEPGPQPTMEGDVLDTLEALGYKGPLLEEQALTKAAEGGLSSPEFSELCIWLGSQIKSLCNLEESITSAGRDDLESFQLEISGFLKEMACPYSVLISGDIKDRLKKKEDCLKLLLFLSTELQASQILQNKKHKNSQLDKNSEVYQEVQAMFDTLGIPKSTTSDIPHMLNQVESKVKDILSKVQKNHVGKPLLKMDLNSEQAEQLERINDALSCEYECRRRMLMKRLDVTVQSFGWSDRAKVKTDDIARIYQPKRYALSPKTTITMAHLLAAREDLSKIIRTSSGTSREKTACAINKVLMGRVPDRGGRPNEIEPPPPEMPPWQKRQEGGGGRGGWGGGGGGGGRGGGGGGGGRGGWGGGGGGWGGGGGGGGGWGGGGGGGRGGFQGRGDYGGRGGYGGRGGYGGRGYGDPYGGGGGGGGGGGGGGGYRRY

Compound: CC1Cc2ccccc2N1C(=O)C1CCCN(C1)C(=O)CCl (mixture of isomers) [TRIM25 ligand 11 (diastereomer mixture)]
Assay: probe-labelled cysteine peptide fold change vs DMSO (competition) (log2 fold change); higher = less target engagement (more negative = stronger competition)
Details: THP-1, incubation time: 4 h
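Note: competitive chemoproteomic profiling in live THP-1 cells with an iodoacetamide desthiobiotin (IA-DTB) probe, comparing probe-labelled peptide intensities in compound-treated cells against DMSO-treated controls.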

**Q.** Which results are given for “FASN_P49327_1127_FCFTPHTEEGCLSER (UniProt P49327)”?
**A.** probe-labelled cysteine peptide fold change (10 µM): 0.135; probe-labelled cysteine peptide fold change (50 µM): 0.099

**Q.** With “FASTKD1_Q53R41_716_MLAEVLGGINCVK (UniProt Q53R41)” as the target, how does the “probe-labelled cysteine peptide fold change” value (10 µM) read?
**A.** Its value is -0.0662.

**Q.** What about the “probe-labelled cysteine peptide fold change” value (50 µM) of the same target?
**A.** The value was 0.00748.

**Q.** “FBXO7_Q9Y3I1_286_LQLLPESFICK (UniProt Q9Y3I1)” was tested. Which “probe-labelled cysteine peptide fold change” value (10 µM) did it give?
**A.** Its value is 0.235.

**Q.** What about the “probe-labelled cysteine peptide fold change” value (50 µM) of the same target?
**A.** The value was 0.0337.

**Q.** For “FAM91A1_Q658Y4_232_GFIYLDVPISDDSCIAVPPLEGFVMNR (UniProt Q658Y4)”, which “probe-labelled cysteine peptide fold change” value (10 µM) is on record?
**A.** The value was 0.0936.

**Q.** And the “probe-labelled cysteine peptide fold change” value (50 µM)?
**A.** The value was -0.0981.

**Q.** “FCGR2A_P12318_62_LEPPWINVLQEDSVTLTCQGAR (UniProt P12318)” was tested. Which “probe-labelled cysteine peptide fold change” value (10 µM) did it give?
**A.** The value was 0.157.

**Q.** And the “probe-labelled cysteine peptide fold change” value (50 µM)?
**A.** The value was 0.0582.

**Q.** Which results are given for “FASTKD1_Q53R41_673_SVCLECPEFQIPWFHDR (UniProt Q53R41)”?
**A.** probe-labelled cysteine peptide fold change (10 µM): 0.021; probe-labelled cysteine peptide fold change (50 µM): 0.192

**Q.** “FAT1_Q14517_574_INCEGTIPR (UniProt Q14517)” was tested. Which “probe-labelled cysteine peptide fold change” value (10 µM) did it give?
**A.** The value was 0.237.

**Q.** And the “probe-labelled cysteine peptide fold change” value (50 µM)?
**A.** The value was 0.204.

**Q.** “FAR1_Q8WVX9_305_NIMVYNCTTGSTNPFHWGEVEYHVISTFK (UniProt Q8WVX9)” was tested. Which “probe-labelled cysteine peptide fold change” value (10 µM) did it give?
**A.** Its value is 0.177.

**Q.** What about the “probe-labelled cysteine peptide fold change” value (50 µM) of the same target?
**A.** The value was 0.113.

**Q.** Which results are given for “FASN_P49327_2010_EACPELDYFVVFSSVSCGR (UniProt P49327)”?
**A.** probe-labelled cysteine peptide fold change (10 µM): -0.103; probe-labelled cysteine peptide fold change (50 µM): 0.0474

**Q.** “FAM98B_Q52LJ0_93_EMACPYSVLISGDIK (UniProt Q52LJ0)” was tested. Which “probe-labelled cysteine peptide fold change” value (10 µM) did it give?
**A.** Its value is 0.0701.

**Q.** And the “probe-labelled cysteine peptide fold change” value (50 µM)?
**A.** The value was 0.0561.

**Q.** How did the “probe-labelled cysteine peptide fold change” value (10 µM) turn out when “FASN_P49327_1227_ACLDTAVENMPSLK (UniProt P49327)” was run?
**A.** Its value is -0.0983.

**Q.** What about the “probe-labelled cysteine peptide fold change” value (50 µM) of the same target?
**A.** Its value is -0.0704.

**Q.** With “FEM1B_Q9UK73_244_ADVVELLLSHADCDR (UniProt Q9UK73)” as the target, how does the “probe-labelled cysteine peptide fold change” value (10 µM) read?
**A.** The value was 0.0229.

**Q.** And the “probe-labelled cysteine peptide fold change” value (50 µM)?
**A.** The value was -0.171.

**Q.** How did the “probe-labelled cysteine peptide fold change” value (10 µM) turn out when “FBN2_P35556_1052_EYETLCPR (UniProt P35556)” was run?
**A.** Its value is 0.0554.

**Q.** What about the “probe-labelled cysteine peptide fold change” value (50 µM) of the same target?
**A.** Its value is 0.365.

**Q.** For “FAM208A_Q9UK61_1245_FYIHEEEESVLCK (UniProt Q9UK61)”, which “probe-labelled cysteine peptide fold change” value (10 µM) is on record?
**A.** The value was 0.0966.

**Q.** And the “probe-labelled cysteine peptide fold change” value (50 µM)?
**A.** Its value is -0.0668.
